Test results published in patent US11324698B2, “Sterically stabilized carrier for aerosol therapeutics, compositions and methods for treating the respiratory tract of a mammal” (VGSK Technologies, Inc., priority 2003, dated 2022).
For at least one compound, name, drawing or mass did not settle the structure.

Key:
Format in all cases: in vivo
sensitized mice = assay: Preliminary dose-response study of daily nebulized BUD in sensitized mice; conditions: 20 μg/ml dose of BUD, daily nebulization
Procedure: The dose of BUD chosen was based on preliminary dose-response studies with 5 to 50 μg of BUD as follows.
Each day, 5, 10, 15, 20 or 50 μg of BUD was administered via nebulization to groups of sensitized mice, and the dose-dependent effects on the inflammatory parameters were evaluated.

[1] = tested on: lung tissues of ovalbumin-sensitized mice; assay: Lung histopathology (cumulative inflammation score, H&E) in ovalbumin-sensitized mice; conditions: BUD 3; with vs without Mch challenge
[2] = tested on: ovalbumin-sensitized mice; assay: Ovalbumin-sensitized mouse asthma model, summary statements over several inflammatory parameters and AHR

## CCCC1O[C@@H]2C[C@H]3[C@@H]4CCC5=CC(=O)C=C[C@]5(C)[C@H]4[C@@H](O)C[C@]3(C)[C@]2(C(=O)CO)O1 (stereo partly shown) [Daily BUD, budesonide]
Sensitized mice
  EPO activity in BAL, PB eosinophils and inflammation of the lung tissues: effectively decrease
[1]
  change of lung inflammation with the Mch challenge (FIG. 9): significant increase in lung inflammation
[2]; BUD 1, compared to SENS group
  lung inflammation (histology, histopathology scores, EPO, serum IgE, PB eosinophil counts), summary BUD 1: did not have comparable effects
[2]; BUD 2, compared to SENS group
  lung inflammation, EPO, serum IgE, PB eosinophil counts, summary BUD 2: did not have comparable effects
[2]; BUD 3, compared to SENS group
  lung inflammation, EPO, serum IgE, PB eosinophil counts and AHR to MCH, summary BUD 3: did not have comparable effects
[2]; BUD 5
  lung inflammation, summary BUD 5: reduced the lung inflammation
[2]; one dose once per week
  inflammation, closing statement of the study: did not have comparable effects
